Results are given in words; binding and its absence hold for the method and conditions named. In cells and extracts the contact can be indirect. Here binding means that the protein was enriched with, or labelled near, the bait; the list need not be complete. For some assays here: No binding means not detected with the bait. For some assays here: Tags and fused reporters may be left off the sequences shown.

Chains of the proteins cited; added tags and fusions are not shown.
UniProt P31749: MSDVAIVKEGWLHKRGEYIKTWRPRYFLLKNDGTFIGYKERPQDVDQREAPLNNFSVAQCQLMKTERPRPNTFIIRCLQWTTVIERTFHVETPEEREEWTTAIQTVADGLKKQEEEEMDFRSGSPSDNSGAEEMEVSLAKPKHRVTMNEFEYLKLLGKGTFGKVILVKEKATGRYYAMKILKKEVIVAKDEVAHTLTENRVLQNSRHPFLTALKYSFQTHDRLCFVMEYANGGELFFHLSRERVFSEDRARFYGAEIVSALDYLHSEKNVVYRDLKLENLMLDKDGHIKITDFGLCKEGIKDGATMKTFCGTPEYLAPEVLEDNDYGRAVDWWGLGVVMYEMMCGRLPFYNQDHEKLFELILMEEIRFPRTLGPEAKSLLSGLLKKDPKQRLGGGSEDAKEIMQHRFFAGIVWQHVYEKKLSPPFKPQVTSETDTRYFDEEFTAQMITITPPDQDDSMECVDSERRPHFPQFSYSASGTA

Experiment in all cases: affinity purification with mass spectrometry
Experiment [1] has as its target T1, MAP3K7 (TAK1), C-terminal His-GSG-Flag tagged bait (UniProt O43318).
T1 sequence: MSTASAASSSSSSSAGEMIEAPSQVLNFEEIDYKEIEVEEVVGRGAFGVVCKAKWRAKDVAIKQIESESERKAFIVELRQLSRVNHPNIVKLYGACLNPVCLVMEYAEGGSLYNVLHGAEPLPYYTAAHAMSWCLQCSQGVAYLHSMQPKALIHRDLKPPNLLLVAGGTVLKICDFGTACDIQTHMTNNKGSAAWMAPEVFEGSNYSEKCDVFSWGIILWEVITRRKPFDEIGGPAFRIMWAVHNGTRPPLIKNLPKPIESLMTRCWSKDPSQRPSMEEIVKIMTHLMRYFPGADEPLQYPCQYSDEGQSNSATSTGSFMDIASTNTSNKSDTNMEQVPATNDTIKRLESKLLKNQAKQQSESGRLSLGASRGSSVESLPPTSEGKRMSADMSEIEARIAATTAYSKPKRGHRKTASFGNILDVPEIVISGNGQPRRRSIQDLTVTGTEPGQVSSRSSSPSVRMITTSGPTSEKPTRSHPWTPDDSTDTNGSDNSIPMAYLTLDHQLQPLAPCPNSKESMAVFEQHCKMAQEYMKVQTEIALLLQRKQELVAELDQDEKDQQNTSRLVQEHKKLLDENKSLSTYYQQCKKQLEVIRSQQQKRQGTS

In experiment [2] the target is AKT1, C-terminal His-GSG-Flag tagged bait (UniProt P31749).
For experiment [3], the target named is T2, TRAF2, C-terminal His-GSG-Flag tagged bait (wild type), Q12933.
T2 chain: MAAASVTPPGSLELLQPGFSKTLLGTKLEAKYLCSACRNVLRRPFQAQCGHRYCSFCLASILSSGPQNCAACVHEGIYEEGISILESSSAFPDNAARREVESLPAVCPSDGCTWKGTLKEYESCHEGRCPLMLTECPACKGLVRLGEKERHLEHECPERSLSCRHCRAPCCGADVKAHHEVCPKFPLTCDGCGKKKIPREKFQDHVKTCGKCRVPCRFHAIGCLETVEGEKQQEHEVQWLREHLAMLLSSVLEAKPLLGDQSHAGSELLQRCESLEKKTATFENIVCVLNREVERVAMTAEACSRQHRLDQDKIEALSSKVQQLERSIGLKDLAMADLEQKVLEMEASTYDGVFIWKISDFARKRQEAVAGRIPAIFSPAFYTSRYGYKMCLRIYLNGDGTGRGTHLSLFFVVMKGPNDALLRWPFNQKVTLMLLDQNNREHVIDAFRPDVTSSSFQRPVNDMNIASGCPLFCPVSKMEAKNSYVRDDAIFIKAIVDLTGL
As to conditions: remark: other sources report otherwise.

Experiment [4] deals with T3, TRAF2, C-terminal His-GSG-Flag tagged bait (wild type) (UniProt Q12933).
T3 sequence: T2 chain

B1: CDC37 (protein, UniProt Q16543 1-378)
chain: MVDYSVWDHIEVSDDEDETHPNIDTASLFRWRHQARVERMEQFQKEKEELDRGCRECKRKVAECQRKLKELEVAEGGKAELERLQAEAQQLRKEERSWEQKLEEMRKKEKSMPWNVDTLSKDGFSKSMVNTKPEKTEEDSEEVREQKHKTFVEKYEKQIKHFGMLRRWDDSQKYLSDNVHLVCEETANYLVIWCIDLEVEEKCALMEQVAHQTIVMQFILELAKSLKVDPRACFRQFFTKIKTADRQYMEGFNDELEAFKERVRGRAKLRIEKAMKEYEEEERKKRLGPGGLDPVEVYESLPEELQKCFDVKDVQMLQDAISKMDPTDAKYHMQRCIDSGLWVPNSKASEAKEGEEAGPGDPLLEAVPKTGDEKDVSV
Take B1: the binding result in experiment [1] and in experiment [2] was “binds” in each case.

B2: CASP8, Q14790 1-479 (protein)
chain: MDFSRNLYDIGEQLDSEDLASLKFLSLDYIPQRKQEPIKDALMLFQRLQEKRMLEESNLSFLKELLFRINRLDLLITYLNTRKEEMERELQTPGRAQISAYRVMLYQISEEVSRSELRSFKFLLQEEISKCKLDDDMNLLDIFIEMEKRVILGEGKLDILKRVCAQINKSLLKIINDYEEFSKERSSSLEGSPDEFSNGEELCGVMTISDSPREQDSESQTLDKVYQMKSKPRGYCLIINNHNFAKAREKVPKLHSIRDRNGTHLDAGALTTTFEELHFEIKPHDDCTVEQIYEILKIYQLMDHSNMDCFICCILSHGDKGIIYGTDGQEAPIYELTSQFTGLKCPSLAGKPKVFFIQACQGDNYQKGIPVETDSEEQPYLEMDLSSPQTRYIPDEADFLLGMATVNNCVSYRNPAEGTWYIQSLCQSLRERCPRGDDILTILTEVNYEVSNKDDKKNMGKQMPQPTFTLRKKLVFPSD
B2: the binding entry in experiment [3] is listed as “no binding”.

B3: RIPK1, Q13546 1-671 (protein)
chain: MQPDMSLNVIKMKSSDFLESAELDSGGFGKVSLCFHRTQGLMIMKTVYKGPNCIEHNEALLEEAKMMNRLRHSRVVKLLGVIIEEGKYSLVMEYMEKGNLMHVLKAEMSTPLSVKGRIILEIIEGMCYLHGKGVIHKDLKPENILVDNDFHIKIADLGLASFKMWSKLNNEEHNELREVDGTAKKNGGTLYYMAPEHLNDVNAKPTEKSDVYSFAVVLWAIFANKEPYENAICEQQLIMCIKSGNRPDVDDITEYCPREIISLMKLCWEANPEARPTFPGIEEKFRPFYLSQLEESVEEDVKSLKKEYSNENAVVKRMQSLQLDCVAVPSSRSNSATEQPGSLHSSQGLGMGPVEESWFAPSLEHPQEENEPSLQSKLQDEANYHLYGSRMDRQTKQQPRQNVAYNREEERRRRVSHDPFAQQRPYENFQNTEGKGTAYSSAASHGNAVHQPSGLTSQPQVLYQNNGLYSSHGFGTRPLDPGTAGPRVWYRPIPSHMPSLHNIPVPETNYLGNTPTMPFSSLPPTDESIKYTIYNSTGIQIGAYNYMEIGGTSSSLLDSTNTNFKEEPAAKYQAIFDNTTSLTDKHLDPIRENLGKHWKNCARKLGFTQSQIDEIDHDYERDGLKEKVYQMLQKWVMREGIKGATVGKLAQALHQCSRIDLLSSLIYVSQN
On to B3, for which, in experiment [3], the binding entry is “no binding”.

B4: IKBKE (protein, UniProt Q14164 1-716)
chain: MQSTANYLWHTDDLLGQGATASVYKARNKKSGELVAVKVFNTTSYLRPREVQVREFEVLRKLNHQNIVKLFAVEETGGSRQKVLVMEYCSSGSLLSVLESPENAFGLPEDEFLVVLRCVVAGMNHLRENGIVHRDIKPGNIMRLVGEEGQSIYKLTDFGAARELDDDEKFVSVYGTEEYLHPDMYERAVLRKPQQKAFGVTVDLWSIGVTLYHAATGSLPFIPFGGPRRNKEIMYRITTEKPAGAIAGAQRRENGPLEWSYTLPITCQLSLGLQSQLVPILANILEVEQAKCWGFDQFFAETSDILQRVVVHVFSLSQAVLHHIYIHAHNTIAIFQEAVHKQTSVAPRHQEYLFEGHLCVLEPSVSAQHIAHTTASSPLTLFSTAIPKGLAFRDPALDVPKFVPKVDLQADYNTAKGVLGAGYQALRLARALLDGQELMFRGLHWVMEVLQATCRRTLEVARTSLLYLSSSLGTERFSSVAGTPEIQELKAAAELRSRLRTLAEVLSRCSQNITETQESLSSLNRELVKSRDQVHEDRSIQQIQCCLDKMNFIYKQFKKSRMRPGLGYNEEQIHKLDKVNFSHLAKRLLQVFQEECVQKYQASLVTHGKRMRVVHETRNHLRLVGCSVAACNTEAQGVQESLSKLLEELSHQLLQDRAKGAQASPPPIAPYPSPTRKDLLLHMQELCEGMKLLASDLLDNNRIIERLNRVPAPPDV
B4: the binding result in experiment [4] was “binds”.

For the origin of these results see publication doi:10.1101/2020.11.16.384750.
